# Test results as given in patent publication US20020183333A1, “Compositions and methods for chemotherapy having reduced nephrotoxicity” (priority 2000, published 2002).
# “Also recorded” adds a separate entry of the source. For at least one compound, name, drawing or mass did not settle the structure.
# Tested on: LLC-WRC 256 cells
# Assay: Antineoplastic efficacy of CP by trypan blue exclusion assay (percentage of non-viable cells)
# Format: cell-based, rat
# Conditions: 30 min preincubation with DFO 1 mM, DMSO 5 mM, CM 2 mM or PB 1 mM, then cisplatin 500 μg/ml for 5 hours; FIGS. 2 and 3
# Description: LLC-WRC 256 cells (Walker rat carcinoma cells) purchased from American Type Culture Collection (ATCC, Rockville, Maryland) were maintained in 75 cm^2 tissue culture flasks containing Medium 199 supplemented with 5% fetal bovine serum (Gibco, Gaithersburg, Md.) in a humidified atmosphere of 95% air-5% CO2 at 37° C. For the experimental study, the cell monolayers were subcultured with 0.25% trypsin into a 12-well tissue culture plate until confluence. The antineoplastic efficacy of CP in LLC-WRC 256 cells was measured by the cell viability determined by the trypan blue exclusion assay. Cells failing to exclude the dye were considered non-viable, and data expressed as the percentage of non-viable cells. Antineoplastic efficacy of CP was examined as previously described (Rawlings and Roberts, 1986, Mutation Research 166(2): 157-168.). The cells were incubated with various concentrations of CP (0-600 μg/ml) at different time points (0-6 h) in HBSS at 37° C. At the end of the incubation, the cell viability was determined. Confluent LLC-WRC 256 cell monolayer was incubated with antineoplastic dose of CP for a period of time necessary to induce consistent antineoplastic activity (CP 500 μg/ml in HBSS for 5 hours at 37° C., based on the. initial observation). […]
smiles,measurement,value
"CC(=O)N(O)CCCCCNC(=O)CCC(=O)N(O)CCCCCNC(=O)CCC(=O)N(O)CCCCCN [DFO, deferoxamine]",effect of the inhibitor on the antineoplastic efficacy of cisplatin,CP still functions as an antineoplastic compound; also recorded: does not reduce the antineoplastic efficacy of CP
